Laboratory results taken from PMC5026343.
These are yes or no findings as the source states them, for the method shown. For some assays here: Binding calls can cover weak binding; strength is not graded here. For some assays here: Binding seen in cells or lysates may run through a third protein.

T1: female-specific storage protein SP1 of Bombyx mori (Bombyx mori) (UniProt P09179)
T1 sequence: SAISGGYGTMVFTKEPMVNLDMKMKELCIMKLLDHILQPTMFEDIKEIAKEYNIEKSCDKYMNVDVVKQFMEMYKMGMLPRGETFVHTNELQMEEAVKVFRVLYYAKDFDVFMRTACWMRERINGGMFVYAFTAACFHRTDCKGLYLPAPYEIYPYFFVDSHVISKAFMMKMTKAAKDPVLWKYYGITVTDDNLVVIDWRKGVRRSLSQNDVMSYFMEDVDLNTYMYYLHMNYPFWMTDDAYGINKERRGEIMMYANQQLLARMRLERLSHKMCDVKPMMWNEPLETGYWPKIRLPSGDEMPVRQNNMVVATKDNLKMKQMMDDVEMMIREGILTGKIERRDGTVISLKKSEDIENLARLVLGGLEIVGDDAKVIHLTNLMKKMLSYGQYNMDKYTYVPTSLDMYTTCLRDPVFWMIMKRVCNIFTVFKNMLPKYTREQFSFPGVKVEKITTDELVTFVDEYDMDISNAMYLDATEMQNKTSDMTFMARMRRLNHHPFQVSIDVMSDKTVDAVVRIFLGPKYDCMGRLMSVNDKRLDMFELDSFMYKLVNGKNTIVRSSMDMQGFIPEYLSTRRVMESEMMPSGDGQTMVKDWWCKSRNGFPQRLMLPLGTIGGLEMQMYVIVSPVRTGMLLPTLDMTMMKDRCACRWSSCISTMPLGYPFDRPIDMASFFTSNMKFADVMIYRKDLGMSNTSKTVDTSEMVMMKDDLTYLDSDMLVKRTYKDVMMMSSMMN

T2: storage protein SP2 of Bombyx mori (Bombyx mori) (UniProt P20613)
T2 sequence: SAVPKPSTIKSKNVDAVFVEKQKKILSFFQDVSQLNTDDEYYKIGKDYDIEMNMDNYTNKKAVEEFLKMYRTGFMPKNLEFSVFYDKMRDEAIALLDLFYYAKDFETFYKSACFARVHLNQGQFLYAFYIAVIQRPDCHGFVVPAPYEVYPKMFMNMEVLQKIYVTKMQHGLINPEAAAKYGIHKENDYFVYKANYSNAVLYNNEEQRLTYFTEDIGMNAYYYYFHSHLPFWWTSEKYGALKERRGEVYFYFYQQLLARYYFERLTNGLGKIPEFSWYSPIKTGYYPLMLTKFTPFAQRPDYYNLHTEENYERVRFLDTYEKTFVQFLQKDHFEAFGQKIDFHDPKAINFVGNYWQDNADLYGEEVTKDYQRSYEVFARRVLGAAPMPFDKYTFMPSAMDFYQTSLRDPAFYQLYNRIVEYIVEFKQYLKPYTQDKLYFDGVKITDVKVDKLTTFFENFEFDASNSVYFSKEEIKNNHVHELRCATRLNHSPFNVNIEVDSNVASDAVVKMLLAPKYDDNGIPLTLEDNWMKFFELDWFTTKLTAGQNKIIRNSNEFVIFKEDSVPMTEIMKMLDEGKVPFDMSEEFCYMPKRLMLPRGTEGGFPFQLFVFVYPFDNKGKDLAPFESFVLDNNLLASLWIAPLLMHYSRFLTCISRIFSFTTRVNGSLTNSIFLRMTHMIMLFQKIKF

B1: female-specific storage protein SP1 of Bombyx mori (protein, UniProt P09179 16-747)
chain: T1 sequence
B2: storage protein SP2 of Bombyx mori (protein, UniProt P20613 17-704)
chain: T2 sequence

Assays:
[1] = biological target: T1, female-specific storage protein SP1 of Bombyx mori (Bombyx mori); assay: far-Western, overlay or dot blot; about 1 μg pure SP1, SP2 and BSA separated by 10% SDS-PAGE, transferred to PVDF and renatured on the membrane; incubated with 30 μg pure LBD1; then standard western blotting; both purified
[2] = biological target: T2, storage protein SP2 of Bombyx mori (Bombyx mori); assay: as above
LBD1-ΔR1 (Bombyx mori) = assay: condition: SP1 210 μM in the syringe; mutant 16.9~20 μM in the cell; ITC; MicroCal VP-ITC, 25°C, 20 mM Tris-HCl pH 8.0, 150 mM NaCl; LBD1 or mutant in the cell (16.9~20 μM), SP1/SP2 in the syringe (210 μM); single-site binding model; both purified
LBD1-ΔR3 (Bombyx mori) = assay: as above
LBD1-ΔR2 (Bombyx mori) = assay: ITC; MicroCal VP-ITC, 25°C, 20 mM Tris-HCl pH 8.0, 150 mM NaCl; LBD1 or mutant in the cell (16.9~20 μM), SP1/SP2 in the syringe (210 μM); single-site binding model; both purified
LBD1-ΔR4 (Bombyx mori) = assay: as above
[3] = biological target: LBD1, first ligand binding domain of Bombyx mori vitellogenin receptor (BmVgR) (Bombyx mori); assay: as above
[4] = biological target: LBD1, first ligand binding domain of Bombyx mori vitellogenin receptor (BmVgR) (Bombyx mori); assay: co-IP; pure LBD1 incubated with pure SP1 or SP2, then with anti-LBD1 on protein A/G PLUS-agarose beads overnight; washing buffer 20 mM Tris-HCl pH 8.0, 150 mM NaCl, 5% glycerol; western blot of the precipitates; both purified
[5] = biological target: His6-SUMO-LBD1 (first ligand binding domain of Bombyx mori vitellogenin receptor, tagged) (Bombyx mori); assay: pull-down; 2 mg His6-SUMO-LBD1 on 0.5 ml Ni-NTA agarose beads; 5 mL fresh silkworm larval hemolymph, 4°C, 2 h; washed with 20 mM Tris-HCl pH 8.0, 500 mM NaCl; eluted with 80-500 mM imidazole; band on SDS-PAGE identified by MALDI-TOF/TOF MS; only the target purified
[6] = biological target: LBD1, first ligand binding domain of Bombyx mori vitellogenin receptor (BmVgR) (Bombyx mori); assay: condition: SP2 210 μM in the syringe; LBD1 16.9~20 μM in the cell; ITC; MicroCal VP-ITC, 25°C, 20 mM Tris-HCl pH 8.0, 150 mM NaCl; LBD1 or mutant in the cell (16.9~20 μM), SP1/SP2 in the syringe (210 μM); single-site binding model; both purified

| Molecule | binding [1] | binding [2] | binding (LBD1-ΔR1 (Bombyx mori)) | binding (LBD1-ΔR3 (Bombyx mori)) | binding (LBD1-ΔR2 (Bombyx mori)) | binding (LBD1-ΔR4 (Bombyx mori)) | binding [3] | binding [4] | binding [5] | binding [6] |
| --- | --- | --- | --- | --- | --- | --- | --- | --- | --- | --- |
| LBD1, first ligand binding domain of Bombyx mori vitellogenin receptor (BmVgR) (domain or fragment) | binds | no binding (tested: 30 μg pure LBD1 on about 1 μg SP2) | – | – | – | – | – | – | – | – |
| B1 | – | – | no binding | no binding | binds | binds | binds | binds | binds | – |
| B2 | – | – | – | – | – | – | – | no binding | – | no binding |
